Assay results reported in patent US12637687B2, “Nucleic acid molecules, polypeptides having epoxy group-removing catalytic activity and use thereof” (SHANDONG AGRICULTURAL UNIVERSITY, priority 2020, dated 2026).

Test: In vitro enzymatic reaction system of ThFhb7 polypeptide (DON + GSH, LC-HRMS)
Format: biochemical
Description: The optimal conditions for the in vitro enzymatic reaction system of ThFhb7 polypeptide were established by gradient experiments of three different factors affecting the enzymatic reaction: • (1) the gradient of reaction enzyme amounts: 1 μg, 5 μg, 10 μg, 25 μg, and 50 μg; • (2) the pH gradient set with various buffers: ranging from 3.0 to 10.0, disodium hydrogen phosphate-citric acid buffer (pH=3.0, 4.0, 5.0), disodium hydrogen phosphate-potassium dihydrogen phosphate buffer (pH=6.0, 7.0), and Tris-phosphate buffer (pH=8.0, 9.0, 10.0); and • (3) the gradient of reaction temperatures: 4° C., 12° C., 15° C., 20° C., 25° C., 30° C., 37° C., 45° C., and 50° C.
The reaction was performed in a phosphate buffer (PBS) (pH=7.0), at 25° C. for 12 h, and samples were taken at 0 h, 0.5 h, 1 h, 3 h, and 6 h respectively for LC-HRMS analysis; through the area results of first-level scanning of LC-HRMS, the changes in the amounts of the two substances, DON as the reaction substrate and the GSH adduct as the reaction product, were obtained with proceeding of reaction, so as to obtain the optimal enzyme amount for the reaction, as shown in FIGS. 14A and 14B. […]

B1: ThFhb7: de-epoxidase from Thinopyrum ponticum; polypeptide having epoxy group-removing catalytic activity, amino acid sequence SEQ ID NO: 36, gene SEQ ID NO: 1 (protein, listed as Elytrigia ponticum)
chain: MATSASTSTPIIPTAIAGAPPVAGTCCAVAPTLSALALAPLAVPTTTTTVLMPAISSVAASLAVPACALPAAGSAPATLPIIHAPATASLVGASPAIAATLGATTPASGAGALPPPGLLATAVGAAMPGLLIPLSGIAASPGLAATAAPASAVAAAPTAHVGLMVHGLPLAPATAAVTLAGPVAAAGLSSTAALGMVGGAAALMMGSLAAMLGALAALPALAASGPPLLGGAATTAAMIVGGTLAMMAATLPVSGTGGAAACHGAIPGGLHAALALTAGVL
**Q.** With B1 as the molecule, how does the “optimal test enzyme amount” value (PBS pH=7.0, 25° C., DON-GSH produced stable above this amount) read?
**A.** 25 µg

**Q.** And the “pH of the buffer at which the amount of product DON-GSH reached the highest value” (pH gradient 3.0 to 10.0)?
**A.** 6.0
